{"source": "patent US20090130691A1", "about": "“SCREENING PROTEINASE MODULATORS USING A CHIMERIC PROTEIN AND SKI-I PROPROTEIN CONVERTASE SUBSTRATES AND INHIBITORS” (Institut de Recherches Cliniques de Montreal, priority 2005, published 2009)", "test_system": "endogenous Furin-like PCs", "experiment": "Ex vivo processing of proPDGF-A in HEK293 cells stably expressing PDGF-A-V5", "format": "cell-based, human", "note": "Some results were stated once for a whole list of compounds, not compound by compound. Not every detail of the peptide structures is certain; ends, links or a residue may be inferred. Residues, ends and D or L forms follow the SMILES beside them. *: point of attachment. Decanoyl = CCCCCCCCCC(=O)*; CH2Cl = ClC*"}
{"smiles": "CCCCCCCCCC(=O)N[C@@H](CCCNC(=N)N)C(=O)N[C@@H](CCCNC(=N)N)C(=O)N[C@@H](CC(C)C)C(=O)N[C@@H](CC(C)C)C(=O)CCl", "note": "[dec-RRLL-cmk, reference compound] (Decanoyl-RRLL-CH2Cl)", "values": [{"measurement": "concentration needed to inhibit less than 2% of proPDGF-A processing", "result": "> 100", "unit": "µM"}]}
{"smiles": "CCCCCCCCCC(=O)N[C@@H](Cc1ccc(O)cc1)C(=O)N[C@H](C(=O)N[C@@H](CO)C(=O)N[C@@H](CCCNC(=N)N)C(=O)N[C@@H](CCCNC(=N)N)C(=O)N[C@@H](CC(C)C)C(=O)N[C@@H](CC(C)C)C(=O)CCl)[C@@H](C)CC", "note": "[dec-YISRRLL-cmk] (Decanoyl-YISRRLL-CH2Cl)", "values": [{"measurement": "concentration needed to inhibit less than 2% of proPDGF-A processing", "result": "> 100", "unit": "µM"}]}
